According to patent publication US20090170845A1, “USE OF IMIDAZO[2,1-b]-1,3,4-THIADIAZOLE-2-SULFONAMIDE COMPOUNDS TO TREAT NEUROPATHIC PAIN” (AEGERA THERAPEUTICS INC., priority 2006, published 2009):
Some entries share one result that the patent states for a list of compounds.

Tested on: diabetic rats
Test: Tactile allodynia (von Frey) in diabetic rats (DN)
Assay type: in vivo, rat
Conditions: for time for effect on tactile allodynia / pain to manifest after initial treatment: after initial administration; for duration of effect on tactile allodynia after repeated dosing: repeat administration
Description: The effects of compounds 150, 155, 157 and 158 on neuropathic pain responses characterized by tactile allodynia in diabetic rats were examined. A blinded reversal interventional paradigm was applied to evaluate the compounds, with therapy initiated when an aberrant pain state was clearly established. The effects of single or repeat (5 or two days per week) dosing regimen were assessed as described.
Rats (female Sprague Dawley; 250-270 g) were rendered diabetic with the commercially available agent streptozotocin and, were compared to vehicle-treated age matched controls, maintained for up to 6 weeks or more. Standard physiologic parameters (body weight and blood glucose) were recorded before, during and after the study to assess the metabolic status of animals.
Study 1: Both normal and diabetic groups were divided into two groups of 12 and received either vehicle or Compound 150 in 20% HPCD (10 mg/kg, sc) 5 days per week, for two weeks. Standard indices of sensory nerve function (tactile response threshold) were measured at baseline, prior to drug treatments, 48 hours after the 5th dose, and again prior to sacrifice (after the 10th dose) along with the standard physiologic parameters of body weight and plasma glucose.
Study 2: As per Study 1, except animals were treated with either compound 157 or 158 in 20% HPCD (10 mg/kg, sc) for 14 consecutive days.
Study 3: After 1 month of diabetes rats were treated subcutaneously with a single administration of 150, 155, 157, 154, 158 or 160 in 20% HPCD, as indicated; orally by gavage with a single administration of 157, or for 5 consecutive days by oral gavage with 157 and 158 to assess cumulative effects. The effect of the compounds was assessed 6 hours after the single or final administration.
Detailed methods for performing the behavioral tasks can be found in Journal of Neuroscience Methods (1994), 53: 55-63 and Methods in Molecular Medicine, Volume 99: Pain Research: methods and protocols, edited by Z. D. Luo, Humana Press Inc., Totowa, N.J.

Structure (SMILES) | time for effect on tactile allodynia / pain to manifest after initial treatment [h] | duration of effect on tactile allodynia after repeated dosing | duration of effect on pain after a single administration (single administration)
CC(C)(C)c1ccc(-c2cn3nc(S(=O)(=O)[N-][Na+])sc3n2)cc1 [Compound 158] | 3 to 6 | at least 24 hours | up to 24 hours
COCCOCCOc1ccc(-c2cn3nc(S(=O)(=O)[N-][Na+])sc3n2)cc1 [Compound 157] | 3 to 6 | at least 24 hours | –
